Data from the ROBIN nucleic acid binder screens, doi:10.1002/anie.202211358.

Targets (5′ to 3′):
SAM-II: SAM-II riboswitch RNA pseudoknot, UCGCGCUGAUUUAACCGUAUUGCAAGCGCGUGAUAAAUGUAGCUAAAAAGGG. About 200 hits among about 21,000 compounds.
PreQ1: PreQ1 riboswitch RNA pseudoknot, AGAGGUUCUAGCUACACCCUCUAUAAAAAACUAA. From B. subtilis. About 170 hits among about 24,000 compounds.
TPP: TPP riboswitch RNA three-way junction, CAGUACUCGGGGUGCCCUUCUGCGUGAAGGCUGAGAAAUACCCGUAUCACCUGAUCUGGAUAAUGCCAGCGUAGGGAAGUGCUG. About 160 hits among about 24,000 compounds.

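Compounds were printed on reactive glass slides in duplicate spots, a dye-labelled oligonucleotide was laid over them, and the fluorescence left after washing was read. The data file lists only calls. An earlier report of the laboratory on the PreQ1, TPP and SAM-II riboswitches (doi:10.1038/s41467-019-09493-3) used 1 µM RNA for 2 h and required a mean Z-score above 3 (spot signal-to-noise against the whole library), a score well above that on a control array, and duplicate spots agreeing (coefficient of variation under 100); it then also set aside compounds that hit other targets, which this list keeps. The cut-offs behind this list may differ. A missing hit is not proof of no binding, and a hit is not a measured affinity.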 Key: hit = hit, none = tested without a hit. This is an unselected part of the compounds tested. A dash means that no call is listed here.

SMILES,SAM-II,PreQ1,TPP
CCOC(=O)C1CCCN(c2c(NCCCN3CCCC3)c(=O)c2=O)C1 (centres unmarked),-,none,none
COc1cccc(NC(=O)c2sc3nc4c(cc3c2N)CN(C)CC4)c1,none,none,none
Nc1nc2c(c(N3CCc4nc(N)sc4C3)n1)CCCC2,none,none,none
CCC(C)Nc1nc2c(cc1C#N)COC(C)(C)C2 (centres unmarked),none,none,none
CCOC(=O)N1CCC(NCc2ccccc2-n2ccnc2C)CC1,none,none,none
Nc1nonc1-c1noc(COc2ccccc2Cl)n1,none,none,none
COc1ccc(C2C(C#N)=C(N)Oc3cc(O)ccc32)cc1OC (centres unmarked),none,none,none
Nc1nc(Cl)cc(Nc2ccccc2Cl)n1,none,none,none
CCOc1ccc(S(=O)(=O)[C@H]2CS(=O)(=O)C[C@@H]2NC(C)C)cc1,-,none,none
N#Cc1c2c(c3nncn3c1Nc1ccccc1)CCCC2,none,none,none
Cc1ccccc1NC(=O)Cn1nnc(C(=O)NCc2ccc(F)cc2)c1N,none,none,none
C=CCNc1nc(C)nc2c1sc1nc3c(cc12)COC(C)(C)C3,none,none,none
CCNc1c(-c2n[nH]c(-c3ccc(F)cc3)n2)nnn1Cc1ccccc1F,-,none,none
Cc1nn2cc(C#N)c(N)nc2c1-c1ccccc1,none,none,none
Cc1ccc(Cn2cc(CO)c3ccccc32)cc1,none,none,none
CCOc1ccc(C2c3c(-c4ccccc4O)n[nH]c3C(=O)N2CCCO)cc1OC (centres unmarked),-,none,none
COc1ccc(CNc2ccc3c(c2)sc(=O)n3C)cc1OC,none,none,none
CNC(=O)c1ccc(C)c(-n2c(C)cc(OCc3ccc(F)cc3F)c(Br)c2=O)c1,none,none,none
COc1ccc2[nH]c(C(=O)N3CCC(O)(CO)CC3)c(C)c2c1,none,none,none
Nc1ccc(Oc2ccc(Cl)c3ccccc23)c(Cl)c1,hit,none,hit
COc1cc(Cl)c(C)cc1NC(=O)N(C)CC1(CO)CCOCC1,none,none,none
OCc1nc2ccccc2n1Cc1ccc2ccccc2c1,none,none,none
OCC#CCSc1nnc(-c2cccc(Br)c2)o1,none,none,none
Cc1ccccc1-n1cnc2cc(NCc3ccco3)ccc21,none,none,none
Cc1ccccc1Nc1c(-c2cccs2)nc2ncccn12,none,none,none
Nc1nc(CCCNC(=O)CCc2nc3ccccc3nc2O)cs1,none,none,none
COCCNc1ncccc1-c1nc(-c2ccc(Cl)cc2)no1,-,none,none
CN(C)[C@@H]1C[C@@H](CO)N(C(=O)Nc2ccc(Cl)c3ncccc23)C1,none,none,none
COc1cc(C2NC(=O)C(C#N)=C(Nc3cccc(C)c3)S2)ccc1O (centres unmarked),none,none,none
COCc1n[nH]c2c1C(c1ccc(SC)cc1)C(C#N)=C(N)O2 (centres unmarked),none,none,none
COc1ccc(-c2noc(Nc3cc(OC)c(OC)c(OC)c3)n2)cc1,-,none,none
CCCNc1nc2c(c(=O)n(C)c(=O)n2C)n1CCC,none,none,none
COCCNc1ncnc2scc(-c3ccc(Cl)cc3)c12,-,none,none
CCCn1cnc2cc(NCc3ccccc3OC)ccc21,none,none,none
Cn1ncc(N2CCOC(CCNC3CCC4(CCNCC4)CC3)C2)cc1=O (centres unmarked),none,none,none
CCOC(=O)N1CCC(N2C(=O)c3ccccc3C2Nc2ccc(C(=O)O)cc2)CC1 (centres unmarked),none,none,none
CCCCN(C)S(=O)(=O)c1ccc(NC2=NS(=O)(=O)c3ccccc32)cc1,none,none,none
COCCCNc1ncnc2ccc(Br)cc12,none,none,none
c1ccc(Nc2c(-c3ccc(N4CCOCC4)cc3)nc3ccccn23)cc1,none,none,none
Nc1cnn(-c2ccccc2)c(=O)c1O,none,none,none
OCc1cc(-c2cccc(Cl)c2)no1,none,none,none
COc1ccc(Nc2c(-c3ccc(C)cc3)c(=O)c2=O)cc1OC,-,none,none
O=C(C1CC2(CCNCC2)CN1)N(CCN1CCOCC1)Cc1ccco1 (centres unmarked),none,none,none
CC(=O)N1CCc2nc3sc(C(=O)c4ccc(Cl)cc4)c(N)c3c(C(F)(F)F)c2C1,none,none,none
C=CCn1cc(CNC(CC)c2nc(C)no2)c(C)n1 (centres unmarked),none,none,none
NC1(c2cn(-c3cccc(Cl)c3)nn2)CCCCC1,none,none,none
Cc1ccccc1N1C(=O)c2ccccc2C1Nc1ccc(F)cc1 (centres unmarked),none,none,none
Cc1ccc(C2(c3noc(COc4cccnc4N)n3)CCCC2)cc1,none,none,none
CCC(CO)N(Cc1ccco1)C(=O)c1cnc(-c2ccccc2)nc1C (centres unmarked),none,none,none
CCc1nc2c(c(NCc3cnc4c(C)cccn34)n1)CCNCC2,none,none,none
Cn1c(CNc2ccccc2)nc2ccccc21,none,none,none